Data from patent US11135246B2, “Peptides and combination of peptides for use in immunotherapy against leukemias and other cancers” (Immatics Biotechnologies GmbH, priority 2017, dated 2021).

Tested on: HLA molecules of primary tumor samples
Experiment: Identification of tumor associated peptides presented on the cell surface (HLA immune precipitation, LC-MS)
Design: species or system human
Details: for Peptide Presentation on cancer entities: entities on which the peptide was presented, CLL = chronic lymphocytic leukemia, AML = acute myeloid leukemia, CML = Chronic myeloid leukemia; for Peptide Presentation on tumor types: tumor entities on which the peptide was found presented (Table 8b)

Substance | Peptide Presentation on cancer entities | Peptide Presentation on tumor types | presentation on cancer entities (Table 8a) (CLL, AML, CML samples) | presentation on cancer entities (Table 8b) (other cancer entities)
249 (SPADHRGYASL; listed as Homo sapiens) [compound 249] | AML | BRCA, CRC, GBC, HCC, HNSCC, MEL, NSCLCadeno, NSCLCother, NSCLCsquam, OC, OSCAR, RCC, SCLC, UBC, UEC |  | 
109 (LGHVRYVL; listed as Homo sapiens) [compound 109] | CLL | CCC, GBM, NHL, UBC |  | 
237 (SPWLHAPSL; listed as Homo sapiens) [compound 237] | CLL | GBC, NHL, NSCLCadeno, OC |  | 
108 (ILAIRQNAL; listed as Homo sapiens) [compound 108] | CLL | CCC, NHL, OC |  | 
62 (YYLSHLERI; listed as Homo sapiens) [compound 62] | AML | GBC, HNSCC, NSCLCadeno, NSCLCother, NSCLCsquam, UBC |  | 
91 (KPKAAKPKAA; listed as Homo sapiens) [compound 91] | CLL |  |  | 
113 (DANSRTSQL; listed as Homo sapiens) [compound 113] | CLL | MEL, NHL, NSCLCadeno, NSCLCother, UEC |  | 
45 (VVFPFPVNK; listed as Homo sapiens) [compound 45] | AML, CML | GBM, NHL, NSCLCother, OC, SCLC, UEC |  | 
11 (AAADHHSLY; listed as Homo sapiens) [compound 11] | AML | GC, SCLC |  | 
67 (VFLPSEGFNF; listed as Homo sapiens) [compound 67] | AML | MEL, NSCLCadeno, SCLC |  | 
144 (TEGKRYFTW; listed as Homo sapiens) [compound 144] | CLL | MEL, NHL |  | 
254 (SPRNLQPQRAAL; listed as Homo sapiens) [compound 254] | CLL | CRC, GBC, HCC, HNSCC, MEL, NHL, NSCLCadeno, NSCLCsquam, OSCAR, PACA, RCC, SCLC, UBC |  | 
209 (KTLPAMLGTGK; listed as Homo sapiens) [compound 209] | CLL | NHL, OC |  | 
172 (VEDGLFHEF; listed as Homo sapiens) [compound 172] | CLL | BRCA, CRC, GC, HCC, HNSCC, MEL, NHL, NSCLCadeno, NSCLCsquam, OC, OSCAR, PACA, PRCA, RCC, UBC, UEC |  | 
57 (RFPPTPPLF; listed as Homo sapiens) [compound 57] | CLL | HNSCC, NHL, NSCLCsquam, OSCAR, UEC |  | 
56 (KYSSGFRNI; listed as Homo sapiens) [compound 56] | CLL | BRCA, CCC, CRC, GBC, GBM, GC, HCC, MEL, NHL, NSCLCadeno, NSCLCother, NSCLCsquam, OC, OSCAR, PACA, PRCA, RCC, SCLC, UEC |  | 
5 (GTDVLSTRY; listed as Homo sapiens) [compound 5] | AML, CML | BRCA, CRC, GBC, GC, GEJC, MEL, NHL, NSCLCadeno, NSCLCother, NSCLCsquam, OSCAR, PACA, PRCA, RCC, SCLC, UBC, UEC |  | 
72 (TYVENLRLL; listed as Homo sapiens) [compound 72] | CLL | BRCA, CCC, CRC, GBC, GBM, GC, HCC, HNSCC, MEL, NHL, NSCLCadeno, NSCLCother, NSCLCsquam, OC, OSCAR, PACA, PRCA, RCC, SCLC, UBC, UEC |  | 
208 (KLNPQQAPLY; listed as Homo sapiens) [compound 208] | CLL | MEL, NHL, OSCAR, UEC |  | 
274 (GEAVTDHPDRLW; listed as Homo sapiens) [compound 274] | CLL | NHL |  | 
68 (LYQDRFDYL; listed as Homo sapiens) [compound 68] | AML | GC, MEL, NHL, NSCLCadeno, NSCLCother, NSCLCsquam, PRCA, SCLC, UEC |  | 
179 (AEIKQTEEKY; listed as Homo sapiens) [compound 179] | AML | HCC |  | 
49 (GLLEEALFY; listed as Homo sapiens) [compound 49] | AML | BRCA, CRC, GBC, GC, HCC, MEL, NSCLCadeno, NSCLCsquam, OSCAR, PACA, PRCA, RCC |  | 
156 (FEVESLFQKY; listed as Homo sapiens) [compound 156] | CLL | BRCA, CRC, GBC, GC, GEJC, HCC, HNSCC, MEL, NHL, NSCLCadeno, NSCLCsquam, OC, OSCAR, PACA, PRCA, RCC, SCLC, UEC |  | 
64 (SFQSKATVF; listed as Homo sapiens) [compound 64] | AML |  |  | 
166 (NEVLASKY; listed as Homo sapiens) [compound 166] | CLL | BRCA, CCC, CRC, GBC, GC, HCC, NHL, NSCLCadeno, NSCLCsquam, OC, OSCAR, PRCA, SCLC, UBC, UEC |  | 

Substance | Peptide Presentation on cancer entities | Peptide Presentation on tumor types | presentation on cancer entities (Table 8a) (CLL, AML, CML samples) | presentation on cancer entities (Table 8b) (other cancer entities)
196 (FTDIDGQVY; listed as Homo sapiens) [compound 196] | CLL | BRCA, CCC, CRC, GBC, GBM, GC, HCC, HNSCC, MEL, NHL, NSCLCadeno, NSCLCother, NSCLCsquam, OSCAR, PACA, PRCA, RCC, SCLC, UBC, UEC |  | 
131 (EEFETIERF; listed as Homo sapiens) [compound 131] | CLL | BRCA, CCC, CRC, GBC, GBM, GC, GEJC, HCC, HNSCC, MEL, NHL, NSCLCadeno, NSCLCother, NSCLCsquam, OC, OSCAR, PACA, PRCA, RCC, SCLC, UBC, UEC |  | 
77 (RPNGNSLFTSA; listed as Homo sapiens) [compound 77] | CLL | HCC, MEL, NHL, PRCA, SCLC, UEC |  | 
125 (SESTFDRTF; listed as Homo sapiens) [compound 125] | CLL |  |  | 
222 (RYLDEINLL; listed as Homo sapiens) [compound 222] | AML | BRCA, CCC, CRC, GBC, GBM, GC, HCC, HNSCC, MEL, NHL, NSCLCadeno, NSCLCother, NSCLCsquam, OC, OSCAR, PACA, PRCA, RCC, SCLC, UBC, UEC |  | 
35 (ATKSPAKPK; listed as Homo sapiens) [compound 35] | CLL |  |  | 
ALDQNKMHY (listed as Homo sapiens) [Seq ID No 4] |  |  | CLL | BRCA, CCC, CRC, GBC, GC, GEJC, HCC, HNSCC, MEL, NSCLCadeno, NSCLCother, NSCLCsquam, OSCAR, PACA, PRCA, SCLC, UBC, UEC
233 (SPRVYWLGL; listed as Homo sapiens) [compound 233] | CLL | NHL |  | 
3 (YINPAKLTPY; listed as Homo sapiens) [compound 3] | CLL | GBC, MEL, NHL, NSCLCother, UBC |  | 
185 (SEGDNVESW; listed as Homo sapiens) [compound 185] | CLL | NHL |  | 
87 (FPAPILRAV; listed as Homo sapiens) [compound 87] | CLL | GBC, GC, MEL, NHL, NSCLCother, UBC |  | 
230 (KPMKSVLVV; listed as Homo sapiens) [compound 230] | CLL | BRCA, GC, NHL, NSCLCadeno, OC, OSCAR, UBC |  | 
89 (FPETVNNLL; listed as Homo sapiens) [compound 89] | CLL | NSCLCadeno, NSCLCother, NSCLCsquam, PACA |  | 
30 (RTYGFVLTF; listed as Homo sapiens) [compound 30] | CLL |  |  | 
32 (KTSNIVKIK; listed as Homo sapiens) [compound 32] | CLL |  |  | 
158 (GENEDNRIGL; listed as Homo sapiens) [compound 158] | CLL |  |  | 
107 (QAAQRTAL; listed as Homo sapiens) [compound 107] | CLL |  |  | 
43 (KLMETSMGF; listed as Homo sapiens) [compound 43] | CLL | BRCA, CRC, GBC, GBM, GC, HCC, HNSCC, MEL, NHL, NSCLCother, NSCLCsquam, OC, OSCAR, PACA, PRCA, RCC, SCLC, UBC, UEC |  | 
248 (LPYDSKHQI; listed as Homo sapiens) [compound 248] | CLL | BRCA, CRC, GBC, GBM, GC, HNSCC, MEL, NHL, NSCLCadeno, NSCLCother, NSCLCsquam, OC, OSCAR, PACA, PRCA, RCC, SCLC, UBC, UEC |  | 
232 (APRPAGSYL; listed as Homo sapiens) [compound 232] | CLL | BRCA, CCC, CRC, GBC, GBM, GC, HCC, HNSCC, MEL, NHL, NSCLCadeno, NSCLCother, NSCLCsquam, OC, OSCAR, PACA, PRCA, RCC, SCLC, UBC, UEC |  | 
259 (EENTLVQNY; listed as Homo sapiens) [compound 259] | CLL | BRCA, CRC, HCC, HNSCC, MEL, NHL, NSCLCadeno, NSCLCother, NSCLCsquam, OC, OSCAR, PACA, PRCA, SCLC, UBC, UEC |  | 
263 (REAGFQVKAY; listed as Homo sapiens) [compound 263] | CLL | MEL, NHL |  | 
195 (YSDKEFAGSY; listed as Homo sapiens) [compound 195] | CLL | BRCA, CRC, GBC, GBM, GC, GEJC, HCC, HNSCC, MEL, NHL, NSCLCadeno, NSCLCother, NSCLCsquam, OSCAR, PACA, PRCA, RCC, SCLC, UBC, UEC |  | 
19 (SLFEGIYTI; listed as Homo sapiens) [compound 19] | AML |  |  | 
106 (KAFKWFSAL; listed as Homo sapiens) [compound 106] | CLL | NHL |  | 
